Values from PubChem BioAssay AID652243 (Drosophila RNAi Screening Center, 2013).
Purpose: 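Fly regulators of androgen-dependent reporter output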 (primary screen). System: Drosophila S2R+ cells. Knock-down reagent: long dsRNA against Drosophila genes. Time to read-out: 72 h (48 h, then 24 h hormone). Challenge: synthetic androgen R1881 at 10 nM for 24 h. Measured: 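Per-well raw luminescence of the androgen-driven firefly reporter and of the Renilla control, two replicates each, without normalisation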. Scale: firefly reporter light: higher = more light from androgen-responsive reporter; Renilla control light: higher = more constitutive control signal (cell number, transfection). Call rule: 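Across duplicate plates, a knock-down whose log firefly/Renilla ratio shifted a set fold down or up from the GFP/LacZ control mean was a hit; the downward cut appears as both 1.5 and 3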. Meaning of the calls: active = hit: reporter lowered or raised; inactive = no hit.
The deposit covers about 24,000 reagents; this is an unselected part of those with a known target gene and a result. In the full data, 246 (1%) are marked active. 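Plates not normalised; calls are printed but the firefly/Renilla ratio behind them is not deposited; fold cut for lowering reported inconsistently.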 The raw values are shown without normalisation. A plus sign joins genes that one reagent is predicted to hit. Not given: the amount of reagent.

"firefly reporter light, replicate 1","firefly reporter light, replicate 2","Renilla control light, replicate 1","Renilla control light, replicate 2",outcome,Gene,DRSC id
7.12e5,8.80e5,9.62e5,9.38e5,inactive,CG9143,DRSC07338
7.61e5,5.45e5,2.44e6,2.42e6,inactive,ap,DRSC04917
70421,65149,1.72e6,1.44e6,inactive,CG11737,DRSC14364
1.79e5,1.91e5,1.70e6,1.73e6,inactive,GstD4,DRSC16685
2.11e5,1.37e5,4.19e5,6.86e5,inactive,GstD4,DRSC27765
7.12e5,6.47e5,8.42e5,9.94e5,inactive,GstD4,DRSC38958
1.01e6,1.06e6,2.27e6,2.41e6,inactive,CG7627,DRSC03065
6.75e5,9.03e5,7.64e5,8.15e5,inactive,CG7627,DRSC24481
7.44e5,8.31e5,1.89e6,1.83e6,inactive,CG7627,DRSC39013
9.23e5,8.83e5,2.14e6,1.30e6,inactive,GstS1,DRSC07436
72952,90034,7.67e5,1.17e6,inactive,asRNA:CR43430 + hts,DRSC07629
1.76e5,1.77e5,4.74e5,5.41e5,inactive,CG32299 + CG32298,DRSC07980
5.62e5,5.52e5,6.84e5,7.39e5,inactive,CG32299 + CG32298,DRSC22354
5.06e5,5.23e5,7.60e5,5.78e5,inactive,CG32299 + CG32298,DRSC25827
1.43e5,80059,8.40e5,6.99e5,inactive,CG2147,DRSC18211
1.33e5,91409,1.04e6,8.73e5,inactive,alph,DRSC15398
3.88e5,6.92e5,1.07e6,1.38e6,inactive,alph,DRSC28570
84480,1.14e5,3.20e5,3.15e5,inactive,nAChRalpha2,DRSC17009
7.88e5,5.18e5,4.10e5,3.31e5,inactive,nAChRalpha2,DRSC24487
2.61e5,1.51e5,1.46e6,1.47e6,inactive,Nrk,DRSC07480
,,,,inactive,Nrk,DRSC36725
,,,,inactive,Nrk,DRSC36726
1.12e6,9.02e5,1.65e6,1.59e6,inactive,MICAL-like,DRSC09829
5.83e5,7.93e5,5.66e5,1.09e6,inactive,CG15611,DRSC06563
72398,78462,1.37e6,1.37e6,inactive,CG15611,DRSC06564
1.14e5,67999,2.98e6,1.05e6,inactive,Itpr,DRSC12354
1.00e6,1.13e6,1.05e6,1.06e6,inactive,Itpr,DRSC28770
2.41e5,1.57e5,2.11e6,2.24e6,inactive,Ccm3,DRSC15711
44174,50752,4.93e5,3.31e5,inactive,MYPT-75D,DRSC10743
1.49e5,71551,1.66e6,1.44e6,inactive,CG14374,DRSC14834
6.81e5,8.97e5,2.53e6,2.52e6,inactive,NC2alpha,DRSC04059
5.74e5,6.90e5,3.97e5,3.85e5,inactive,NC2alpha,DRSC25348
3.10e5,3.69e5,3.30e6,3.58e6,inactive,CG9784,DRSC20210
6.15e5,6.29e5,1.25e6,1.42e6,inactive,CG9784,DRSC28204
5.93e5,6.51e5,1.44e6,1.20e6,inactive,cad,DRSC23193
6.14e5,5.08e5,1.55e6,1.17e6,inactive,cad,DRSC27989
12514,18610,1.54e5,1.89e5,inactive,CG8004,DRSC10947
3.15e5,4.72e5,6.95e5,8.24e5,inactive,CG8004,DRSC26615
84814,1.11e5,6.51e5,7.22e5,inactive,CG3330,DRSC15477
2.22e5,2.28e5,5.92e5,5.18e5,inactive,kl-5 (retired record),DRSC20707
5.92e5,5.76e5,4.78e5,3.88e5,inactive,kl-5 (retired record),DRSC20736
1.11e6,7.34e5,1.19e6,7.80e5,inactive,kl-5 (retired record),DRSC20773
6.50e5,5.11e5,6.56e5,7.36e5,inactive,kl-5 (retired record),DRSC21161
5.29e5,8.25e5,2.60e6,2.54e6,inactive,nis,DRSC00290
7.87e5,7.26e5,1.23e6,1.06e6,inactive,CG10137,DRSC02014
99471,79895,1.10e6,8.85e5,inactive,CG10137,DRSC02015
3.96e5,3.41e5,6.20e5,3.51e5,inactive,CG10137,DRSC27098
2.08e5,1.62e5,2.43e6,1.76e6,inactive,CG6937 + btn,DRSC16917
85279,86696,1.48e6,1.66e6,inactive,CG11159,DRSC06050
1.22e6,7.90e5,1.22e6,1.66e6,inactive,Adh + Adhr,DRSC01862
2.13e5,1.59e5,2.06e6,1.60e6,inactive,Adh + Adhr,DRSC01863
3.08e5,1.79e5,2.66e6,2.01e6,inactive,muc,DRSC02832
9.93e5,8.73e5,2.83e6,1.27e6,inactive,muc,DRSC21940
6.64e5,8.69e5,8.57e5,9.46e5,inactive,muc,DRSC23834
3.63e5,4.16e5,1.83e6,1.71e6,inactive,Glo1,DRSC06657
1.42e5,84940,4.55e5,3.49e5,inactive,CG14195,DRSC19550
88959,76349,9.45e5,7.77e5,inactive,Cipc,DRSC14898
1.63e5,1.50e5,2.42e6,1.95e6,inactive,Cipc,DRSC14900
